These are yes or no findings as the source states them, for the method shown. Some results given as binding are weak or reduced against the parent protein; the word gives no strength.
Target: T1, ICOS (Mus musculus, UniProt Q9WVS0)
T1 sequence (membrane protein, looked up): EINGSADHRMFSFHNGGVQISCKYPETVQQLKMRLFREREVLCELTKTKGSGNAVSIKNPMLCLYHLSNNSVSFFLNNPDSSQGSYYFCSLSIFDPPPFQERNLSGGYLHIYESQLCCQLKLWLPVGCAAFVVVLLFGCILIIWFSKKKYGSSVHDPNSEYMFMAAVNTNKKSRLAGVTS
Assay: CDS well image, 293T cells transfected with the mouse gene, stained with the mouse fusion protein

- binding: binds
B1: B7-H2Ig (Fc fusion, Mus musculus, UniProt Q9JHJ8 47-279, looked up)
fusion protein: ETEVGAMVGSNVVLSCIDPHRRHFNLSGLYVYWQIENPEVSVTYYLPYKSPGINVDSSYKNRGHLSLDSMKQGNFSLYLKNVTPQDTQEFTCRVFMNTATELVKILEEVVRLRVAANFSTPVISTSDSSNPGQERTYTCMSKNGYPEPNLYWINTTDNSLIDTALQNNTVYLNKLGLYDVISTLRLPWTSRGDVLCCVENVALHQNITSISQAESFTGNNTKNPQETHNNELK
notes: Ig fusion protein purchased from R&D systems; also called mouse B7-H2Ig fusion protein

Source: patent US20120219559A1 (Johns Hopkins, published 2012)
